This passage reports survivor count and T/C results from PubChem BioAssay AID248 (DTP/NCI, 2004).

The list shows only some results of the screen, not a fair sample: it gathers tests that were run many times, whatever their T/C, doses with no T/C, and many T/C values between a quarter and a half above the control. Other doses and runs of a compound stand elsewhere. T/C gives the treated animals as a percentage of the vehicle group. Some doses have a count of surviving animals in place of a T/C: the source files T/C as zero there, which appears to mark a toxic dose or a test without result, not a measured value. Some survivor counts are full or nearly so, which does not show that the dose was tolerated: survival well below the control is almost never listed, so the zero probably covers shortened survival too. Survivors were counted at the toxicity check, usually on the fifth day, unless a day is given; later deaths do not show. Schedule codes are those of the source, read here as Q, the interval in days (D) or hours (H), X, the number of doses. Some doses were run more than once; their values stand side by side, smallest first. Some schedule codes hold Z or #, which are not explained here. Additions like (4×) stand for listed records that agree. Where survival is the endpoint, this PubChem deposit counts one and a half times the control or more as active, and values a quarter to a half above the control carry no call in these data; other NCI protocols may use other cut-offs. Some T/C values are followed by the survivors on the day toxicity was checked, most often the fifth; without a count, all were alive then.

This assay relates to L1210 leukemia ip in BDF1 mice, survival T/C. Put plainly: NCI In Vivo Anticancer Drug Screen. Data for tumor model L1210 Leukemia (intraperitoneal) in B6D2F1 (BDF1) mice. Particulars: T/C endpoint: mean survival time, higher T/C = longer survival.
[1] abbreviates: dose: 25.0 mg/kg/injection, schedule: Q04DX003 (ip), vehicle: saline with Tween-80.
The mark [2] stands for this setting: dose: 50.0 mg/kg/injection, schedule: Q04DX003 (ip), vehicle: saline with Tween-80.
The mark [3] stands for this setting: dose: 100.0 mg/kg/injection, schedule: Q04DX003 (ip), vehicle: saline with Tween-80.
Where [4] appears, read: dose: 200.0 mg/kg/injection, schedule: Q04DX003 (ip), vehicle: saline with Tween-80.
[5] abbreviates: dose: 400.0 mg/kg/injection, schedule: Q04DX003 (ip), vehicle: saline with Tween-80.
The mark [6] stands for this setting: dose: 100.0 mg/kg/injection, schedule: Q01DX009 (ip), vehicle: saline with Tween-80.
The mark [7] stands for this setting: dose: 400.0 mg/kg/injection, schedule: Q01DX009 (ip), vehicle: saline with Tween-80.
[8] abbreviates: dose: 400.0 mg/kg/injection, schedule: Q01DX001 (ip), vehicle: saline.
Setting [9] is: dose: 300.0 mg/kg/injection, schedule: Q01DX001 (ip), vehicle: saline.
The mark [10] stands for this setting: dose: 200.0 mg/kg/injection, schedule: Q01DX009 (ip), vehicle: Klucel (hydroxypropylcellulose) (HPC).
The mark [11] stands for this setting: dose: 240.0 mg/kg/injection, schedule: Q01DX Z (ip), vehicle: other.
[12] abbreviates: dose: 360.0 mg/kg/injection, schedule: Q01DX Z (ip), vehicle: other.

Take `CC(O)C[As](=O)(O)c1ccccc1Cl` (stereo unspecified): the survivor count by setting is: under setting [1], 3 of 6; under setting [2], 0 of 6; under setting [3], 0 of 6 and 1 of 6; under setting [4], 0 of 6; under setting [5], 0 of 6.

As for `Cc1cc(OC(=O)Nc2cccc(Cl)c2C)ccc1[N+](=O)[O-]`, the T/C under setting [6] is 96, 97, 100 % of control. Moreover, the survivor count reads like this: under setting [6], 3 of 3; (dose: 200.0 mg/kg/injection, schedule: Q01DX009 (ip), vehicle: saline with Tween-80) 1 of 3; under setting [7], 2 of 3 and 5 of 6; (dose: 400.0 mg/kg/injection, schedule: Q04DX002 (ip), vehicle: saline with Tween-80) 1 of 6; under setting [5], 2 of 6.

Turning to `CC1CCC=C2C(=O)C3OC3C(C(C)(C)O)C21C` (stereo unspecified), under setting [4], the survivor count is reported as 6 of 6.

For `Cc1cccc(C(=O)OCc2ccccc2CN2CCCC2)c1`, the survivor count (dose: 400.0 mg/kg/injection, schedule: Q04DX002 (ip), vehicle: saline) is on record as 1 of 3.

Turning to `CCCCC(=O)N/N=C\c1ccc(-c2ccccc2)cc1`, under setting [8], the survivor count is reported as 2 of 4.

As to `CSc1nc(F)nc2c1ncn2C1OC(CO)C(O)C1O` (stereo unspecified), the survivor count under setting [8] is reported as 0 of 6.

In the case of `CCCCN(CCCC)CCNc1ccc(C)c2sc3ccccc3c(=O)c12`, the survivor count (dose: 900.0 mg/kg/injection, schedule: Q01DX Z (ip), vehicle: carboxymethylcellulose (CMC)) is 4 of 6.

As to `C=CC(=O)O`, the survivor count is, setting by setting: (dose: 6.25 mg/kg/injection, schedule: Q04DX003 (ip), vehicle: saline) 0 of 6; (dose: 12.5 mg/kg/injection, schedule: Q04DX003 (ip), vehicle: saline with Tween-80) 1 of 6; (dose: 20.0 mg/kg/injection, schedule: Q01DX001 (ip), vehicle: saline) 0 of 6; under setting [1], 1 of 6; (dose: 40.0 mg/kg/injection, schedule: Q01DX001 (ip), vehicle: saline) 0 of 6 and 1 of 6; (dose: 50.0 mg/kg/injection, schedule: Q01DX001 (ip), vehicle: saline) 4 of 4. The survivor count reads like this: (dose: 50.0 mg/kg/injection, schedule: Q04DX003 (ip), vehicle: Klucel (hydroxypropylcellulose) (HPC)) 2 of 3; under setting [2], 1 of 6; (dose: 80.0 mg/kg/injection, schedule: Q01DX001 (ip), vehicle: saline) 0 of 6 and 2 of 6; (dose: 100.0 mg/kg/injection, schedule: Q01DX001 (ip), vehicle: saline) 0 of 6 (2×); (dose: 100.0 mg/kg/injection, schedule: Q04DX003 (ip), vehicle: Klucel (hydroxypropylcellulose) (HPC)) 0 of 3; under setting [3], 6 of 6. Besides, the survivor count reads like this: (dose: 200.0 mg/kg/injection, schedule: Q01DX001 (ip), vehicle: saline) 0 of 6 (2×); (dose: 200.0 mg/kg/injection, schedule: Q04DX003 (ip), vehicle: Klucel (hydroxypropylcellulose) (HPC)) 0 of 3; under setting [8], 0 of 6 and 1 of 6; (dose: 400.0 mg/kg/injection, schedule: Q04DX003 (ip), vehicle: Klucel (hydroxypropylcellulose) (HPC)) 0 of 3; under setting [5], 0 of 6.

Consider `C=C(C)C1(CCCCC)C(=O)NC(=O)NC1=O`, for which the survivor count under setting [9] is 1 of 6.

For the compound `NS(=O)(=O)c1cc[n+]([O-])c2ccccc12`, the survivor count under setting [7] is on record as 3 of 6.

Regarding `CS(=O)(=O)OCCC(COS(C)(=O)=O)S(=O)(=O)Cc1ccccc1` (stereo unspecified), the survivor count is on record as 1 of 6 (dose: 60.0 mg/kg/injection, schedule: Q01DX001 (ip), vehicle: saline); 1 of 6 (dose: 75.0 mg/kg/injection, schedule: Q01DX001 (ip), vehicle: saline); 0 of 6 (dose: 150.0 mg/kg/injection, schedule: Q01DX001 (ip), vehicle: saline); 0 of 6 under setting [9].

Turning to `Cc1cnc(-n2nc(-c3ccccc3)cc2-c2ccccc2)nc1-c1ccccc1O`, the survivor count (dose: 100.0 mg/kg/injection, schedule: Q01DX009 (ip), vehicle: Klucel (hydroxypropylcellulose) (HPC)) was 2 of 3 and the survivor count under setting [10] is 3 of 3.

On to `CC(C)C([NH-])=O.CC(C)C([NH-])=O.[Cl][Pt+2][Cl]`, for which the survivor count (dose: 100.0 mg/kg/injection, schedule: Q01DX009 (ip), vehicle: saline) is listed as 0 of 6; the survivor count (dose: 200.0 mg/kg/injection, schedule: Q04DX003 (ip), vehicle: saline) was 0 of 6; the survivor count (dose: 400.0 mg/kg/injection, schedule: Q04DX003 (ip), vehicle: saline) is recorded as 0 of 6.

On to `CCCCCCCCCCCCCCCC[N+](C)(C)c1nc(Cl)nc(Cl)n1`, for which the survivor count is 3 of 6 (dose: 150.0 mg/kg/injection, schedule: Q04DX003 (ip), vehicle: saline); 1 of 4 (dose: 200.0 mg/kg/injection, schedule: Q01DX001 (ip), vehicle: water); 0 of 6 (dose: 300.0 mg/kg/injection, schedule: Q04DX003 (ip), vehicle: saline); 0 of 4 (dose: 400.0 mg/kg/injection, schedule: Q01DX001 (ip), vehicle: water).

For `O=C(O)CCC(=O)c1ccc2sc3ccccc3c2c1`, the survivor count is, setting by setting: under setting [10], 0 of 6; (dose: 400.0 mg/kg/injection, schedule: Q01DX009 (ip), vehicle: Klucel (hydroxypropylcellulose) (HPC)) 0 of 6.

As for `O=[N+]([O-])c1ccc(S(=O)(=O)CCCl)cc1`, under setting [10], the survivor count is listed as 0 of 6.

For `c1ccc(-c2c[nH]c(-c3ccccc3)c2)cc1`, the survivor count (dose: 100.0 mg/kg/injection, schedule: Q01DX001 (ip), vehicle: steroid suspending solution) is 6 of 6.

Turning to `O=Cc1ccc(O)c(O)c1`, the survivor count by setting is: (dose: 160.0 mg/kg/injection, schedule: Q01DX Z (ip), vehicle: other) 1 of 6; under setting [11], 0 of 6; under setting [12], 0 of 6; (dose: 540.0 mg/kg/injection, schedule: Q01DX Z (ip), vehicle: carboxymethylcellulose (CMC)) 3 of 6; (dose: 540.0 mg/kg/injection, schedule: Q01DX Z (ip), vehicle: other) 0 of 6; (dose: 1000.0 mg/kg/injection, schedule: Q01DX Z (ip), vehicle: other) 3 of 6. In addition, the T/C runs as follows: under setting [11], 127 % of control; (dose: 340.0 mg/kg/injection, schedule: Q01DX Z (ip), vehicle: other) 129 % of control; (dose: 360.0 mg/kg/injection, schedule: Q01DX Z (ip), vehicle: carboxymethylcellulose (CMC)) 136 % of control; under setting [12], 141 % of control [5 of 6 alive].

Regarding `CCCC[N+](C)(C)CCCOC(=O)C1C2CC3OC(=O)C1C3C2` (stereo unspecified), the survivor count reads like this: under setting [1], 3 of 3; under setting [3], 1 of 3; under setting [4], 0 of 3; under setting [5], 0 of 3.

In the case of `NS(=O)(=O)c1cc(Br)c2c(c1)S(=O)(=O)NCN2`, the T/C under setting [9] was 139 % of control.

For the compound `Clc1cc2c(cc1Cl)OB(c1ccccc1)O2`, the survivor count (dose: 400.0 mg/kg/injection, schedule: Q04DX003 (ip), vehicle: alcohol) is 0 of 6.

`NC(=S)NN=C1CSSC1`: the survivor count (dose: 25.0 mg/kg/injection, schedule: Q04DX003 (ip), vehicle: water) is given as 6 of 6; the survivor count (dose: 50.0 mg/kg/injection, schedule: Q01DX009 (ip), vehicle: water) is 4 of 6; the survivor count (dose: 50.0 mg/kg/injection, schedule: Q04DX003 (ip), vehicle: water) is recorded as 4 of 6.
